Results published in article doi:10.1101/2023.09.14.557376.

Sequences of proteins named here, by UniProt entry; tags and fusion partners are left off. A change or cut given only in a name is not applied to a line headed by its entry. A line that says so, or that is headed by a name, gives the form on record, which may keep a tag or linker. Residues count along the entry.
UniProt O08900: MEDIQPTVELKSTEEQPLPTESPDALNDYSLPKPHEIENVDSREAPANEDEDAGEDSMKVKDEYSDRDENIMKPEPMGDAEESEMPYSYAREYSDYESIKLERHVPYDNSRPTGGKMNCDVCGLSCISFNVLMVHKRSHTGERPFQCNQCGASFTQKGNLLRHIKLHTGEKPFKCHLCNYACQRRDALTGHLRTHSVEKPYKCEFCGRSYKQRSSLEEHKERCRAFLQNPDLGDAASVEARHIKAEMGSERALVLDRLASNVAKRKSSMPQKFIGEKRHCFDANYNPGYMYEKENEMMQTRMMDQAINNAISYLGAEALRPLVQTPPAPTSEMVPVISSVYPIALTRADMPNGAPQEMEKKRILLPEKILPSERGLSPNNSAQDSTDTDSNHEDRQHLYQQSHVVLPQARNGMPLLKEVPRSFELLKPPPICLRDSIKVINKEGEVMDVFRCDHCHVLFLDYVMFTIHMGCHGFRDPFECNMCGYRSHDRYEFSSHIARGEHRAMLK
UniProt Q03267: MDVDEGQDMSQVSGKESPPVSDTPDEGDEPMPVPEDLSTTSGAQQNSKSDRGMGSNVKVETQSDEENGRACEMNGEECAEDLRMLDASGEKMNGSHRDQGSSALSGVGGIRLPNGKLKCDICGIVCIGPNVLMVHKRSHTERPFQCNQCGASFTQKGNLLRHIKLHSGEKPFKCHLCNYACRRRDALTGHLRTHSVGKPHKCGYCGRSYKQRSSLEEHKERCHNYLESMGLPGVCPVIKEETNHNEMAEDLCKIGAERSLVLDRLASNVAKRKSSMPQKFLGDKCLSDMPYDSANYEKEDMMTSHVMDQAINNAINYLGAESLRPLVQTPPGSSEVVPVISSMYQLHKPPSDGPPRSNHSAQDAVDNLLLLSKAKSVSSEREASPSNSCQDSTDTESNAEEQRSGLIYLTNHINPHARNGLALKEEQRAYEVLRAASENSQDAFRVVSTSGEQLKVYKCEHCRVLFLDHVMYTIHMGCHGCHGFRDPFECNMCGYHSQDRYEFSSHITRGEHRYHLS
UniProt P30561, residues 10-848: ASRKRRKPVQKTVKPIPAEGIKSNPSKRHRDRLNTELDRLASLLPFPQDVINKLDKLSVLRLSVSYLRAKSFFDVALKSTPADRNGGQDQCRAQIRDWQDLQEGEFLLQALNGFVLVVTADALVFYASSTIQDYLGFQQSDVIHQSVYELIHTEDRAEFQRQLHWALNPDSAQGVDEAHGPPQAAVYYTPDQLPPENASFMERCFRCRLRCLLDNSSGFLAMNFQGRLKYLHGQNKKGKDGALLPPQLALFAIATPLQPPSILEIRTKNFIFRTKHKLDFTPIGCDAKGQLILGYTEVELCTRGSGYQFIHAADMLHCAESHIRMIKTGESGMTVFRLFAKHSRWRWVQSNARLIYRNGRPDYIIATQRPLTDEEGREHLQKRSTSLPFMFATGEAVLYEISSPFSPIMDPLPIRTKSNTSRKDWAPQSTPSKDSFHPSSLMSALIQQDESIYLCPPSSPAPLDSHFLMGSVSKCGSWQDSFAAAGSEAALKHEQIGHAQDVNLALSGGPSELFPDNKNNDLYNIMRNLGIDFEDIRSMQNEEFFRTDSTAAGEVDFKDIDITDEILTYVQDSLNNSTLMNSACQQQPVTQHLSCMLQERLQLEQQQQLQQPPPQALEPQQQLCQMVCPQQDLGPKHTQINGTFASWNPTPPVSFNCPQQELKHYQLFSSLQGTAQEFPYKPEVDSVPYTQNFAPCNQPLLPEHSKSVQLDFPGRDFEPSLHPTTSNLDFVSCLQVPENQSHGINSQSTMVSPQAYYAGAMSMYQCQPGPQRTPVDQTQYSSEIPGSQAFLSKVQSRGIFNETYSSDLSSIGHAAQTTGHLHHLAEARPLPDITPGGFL
UniProt P97303: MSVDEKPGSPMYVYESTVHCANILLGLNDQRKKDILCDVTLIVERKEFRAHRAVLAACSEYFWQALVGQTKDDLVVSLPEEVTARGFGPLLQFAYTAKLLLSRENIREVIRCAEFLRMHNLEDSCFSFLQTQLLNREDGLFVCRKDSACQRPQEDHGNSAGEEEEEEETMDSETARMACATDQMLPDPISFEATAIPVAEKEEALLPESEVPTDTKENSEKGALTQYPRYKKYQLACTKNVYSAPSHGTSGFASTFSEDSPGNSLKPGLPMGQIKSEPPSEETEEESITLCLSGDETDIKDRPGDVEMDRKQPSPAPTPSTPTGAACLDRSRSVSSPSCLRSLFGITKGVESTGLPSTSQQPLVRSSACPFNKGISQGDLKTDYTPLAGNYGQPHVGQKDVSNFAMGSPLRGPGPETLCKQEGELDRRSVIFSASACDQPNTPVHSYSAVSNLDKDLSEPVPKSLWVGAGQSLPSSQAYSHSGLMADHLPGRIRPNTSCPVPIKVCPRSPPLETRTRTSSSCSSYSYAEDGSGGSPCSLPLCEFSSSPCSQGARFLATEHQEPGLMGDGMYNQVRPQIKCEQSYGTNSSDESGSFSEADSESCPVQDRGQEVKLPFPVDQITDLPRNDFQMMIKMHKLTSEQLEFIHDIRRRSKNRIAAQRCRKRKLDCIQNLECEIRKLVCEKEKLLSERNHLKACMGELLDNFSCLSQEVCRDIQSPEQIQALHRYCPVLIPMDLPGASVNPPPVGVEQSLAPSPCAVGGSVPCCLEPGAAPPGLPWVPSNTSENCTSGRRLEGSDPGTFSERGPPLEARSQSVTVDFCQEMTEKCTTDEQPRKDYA
UniProt P11440: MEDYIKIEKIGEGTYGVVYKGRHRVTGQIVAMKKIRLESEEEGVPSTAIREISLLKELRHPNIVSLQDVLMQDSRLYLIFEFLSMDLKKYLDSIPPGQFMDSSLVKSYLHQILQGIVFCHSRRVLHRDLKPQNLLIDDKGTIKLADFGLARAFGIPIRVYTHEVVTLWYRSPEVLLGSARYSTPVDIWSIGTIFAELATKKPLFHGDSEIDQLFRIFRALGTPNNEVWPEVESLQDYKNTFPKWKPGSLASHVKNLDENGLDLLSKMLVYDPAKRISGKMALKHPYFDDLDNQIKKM
UniProt Q99J95: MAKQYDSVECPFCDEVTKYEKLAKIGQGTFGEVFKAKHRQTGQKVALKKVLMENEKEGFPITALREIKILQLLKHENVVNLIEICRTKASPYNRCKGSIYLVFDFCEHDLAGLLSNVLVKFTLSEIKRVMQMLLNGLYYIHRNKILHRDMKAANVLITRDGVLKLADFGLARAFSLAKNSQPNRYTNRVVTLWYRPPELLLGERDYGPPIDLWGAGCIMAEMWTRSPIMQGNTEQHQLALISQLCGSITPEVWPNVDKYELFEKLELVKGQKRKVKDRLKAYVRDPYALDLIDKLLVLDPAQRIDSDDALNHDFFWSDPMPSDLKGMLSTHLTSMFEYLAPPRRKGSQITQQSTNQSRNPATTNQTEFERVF
UniProt O09106: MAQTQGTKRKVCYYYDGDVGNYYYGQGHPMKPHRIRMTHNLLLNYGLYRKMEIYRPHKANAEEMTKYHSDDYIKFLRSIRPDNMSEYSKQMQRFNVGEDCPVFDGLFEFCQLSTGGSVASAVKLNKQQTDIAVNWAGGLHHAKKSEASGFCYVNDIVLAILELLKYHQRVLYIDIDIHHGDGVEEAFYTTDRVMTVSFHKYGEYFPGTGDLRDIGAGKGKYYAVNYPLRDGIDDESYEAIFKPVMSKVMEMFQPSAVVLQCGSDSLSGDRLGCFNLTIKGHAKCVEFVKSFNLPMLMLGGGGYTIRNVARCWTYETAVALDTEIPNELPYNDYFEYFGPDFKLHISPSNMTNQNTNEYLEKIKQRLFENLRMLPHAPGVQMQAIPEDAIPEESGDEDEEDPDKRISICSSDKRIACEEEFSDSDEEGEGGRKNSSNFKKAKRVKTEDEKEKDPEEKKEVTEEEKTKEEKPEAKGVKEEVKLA
UniProt Q9Z127: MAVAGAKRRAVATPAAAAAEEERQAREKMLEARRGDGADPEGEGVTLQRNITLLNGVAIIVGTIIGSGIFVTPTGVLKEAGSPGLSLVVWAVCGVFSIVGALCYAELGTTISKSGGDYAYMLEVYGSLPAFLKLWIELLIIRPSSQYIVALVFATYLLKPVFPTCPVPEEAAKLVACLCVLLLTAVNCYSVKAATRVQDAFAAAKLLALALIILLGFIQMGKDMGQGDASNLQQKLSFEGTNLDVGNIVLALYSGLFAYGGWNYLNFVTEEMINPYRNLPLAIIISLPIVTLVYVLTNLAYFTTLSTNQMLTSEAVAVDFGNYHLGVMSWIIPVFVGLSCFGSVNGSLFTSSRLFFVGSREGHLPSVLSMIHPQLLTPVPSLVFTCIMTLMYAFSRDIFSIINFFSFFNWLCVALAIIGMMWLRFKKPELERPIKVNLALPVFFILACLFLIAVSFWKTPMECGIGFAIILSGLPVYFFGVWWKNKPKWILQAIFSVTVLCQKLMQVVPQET
UniProt Q2TBA3: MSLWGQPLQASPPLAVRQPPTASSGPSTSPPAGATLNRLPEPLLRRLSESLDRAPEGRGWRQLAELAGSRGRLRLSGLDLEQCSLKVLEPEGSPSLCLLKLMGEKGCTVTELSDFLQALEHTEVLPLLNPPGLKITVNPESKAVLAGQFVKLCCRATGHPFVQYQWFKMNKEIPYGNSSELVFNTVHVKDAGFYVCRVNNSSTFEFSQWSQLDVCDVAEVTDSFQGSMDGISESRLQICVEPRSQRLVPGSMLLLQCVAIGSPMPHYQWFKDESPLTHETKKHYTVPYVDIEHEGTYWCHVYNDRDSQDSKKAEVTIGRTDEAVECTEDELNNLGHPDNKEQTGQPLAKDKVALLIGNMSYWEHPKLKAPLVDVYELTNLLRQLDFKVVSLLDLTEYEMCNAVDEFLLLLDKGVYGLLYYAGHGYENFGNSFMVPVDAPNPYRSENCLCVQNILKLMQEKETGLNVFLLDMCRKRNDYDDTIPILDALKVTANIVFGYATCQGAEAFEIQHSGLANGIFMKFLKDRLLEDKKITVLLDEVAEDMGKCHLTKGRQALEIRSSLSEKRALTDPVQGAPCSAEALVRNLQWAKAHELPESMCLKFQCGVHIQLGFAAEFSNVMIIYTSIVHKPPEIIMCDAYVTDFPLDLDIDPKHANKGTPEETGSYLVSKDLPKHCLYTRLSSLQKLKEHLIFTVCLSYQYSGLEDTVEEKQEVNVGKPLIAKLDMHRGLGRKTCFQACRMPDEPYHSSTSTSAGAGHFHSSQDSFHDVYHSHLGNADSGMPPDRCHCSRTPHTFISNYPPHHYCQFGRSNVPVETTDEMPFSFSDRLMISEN
RORγt (P51450-2, form named): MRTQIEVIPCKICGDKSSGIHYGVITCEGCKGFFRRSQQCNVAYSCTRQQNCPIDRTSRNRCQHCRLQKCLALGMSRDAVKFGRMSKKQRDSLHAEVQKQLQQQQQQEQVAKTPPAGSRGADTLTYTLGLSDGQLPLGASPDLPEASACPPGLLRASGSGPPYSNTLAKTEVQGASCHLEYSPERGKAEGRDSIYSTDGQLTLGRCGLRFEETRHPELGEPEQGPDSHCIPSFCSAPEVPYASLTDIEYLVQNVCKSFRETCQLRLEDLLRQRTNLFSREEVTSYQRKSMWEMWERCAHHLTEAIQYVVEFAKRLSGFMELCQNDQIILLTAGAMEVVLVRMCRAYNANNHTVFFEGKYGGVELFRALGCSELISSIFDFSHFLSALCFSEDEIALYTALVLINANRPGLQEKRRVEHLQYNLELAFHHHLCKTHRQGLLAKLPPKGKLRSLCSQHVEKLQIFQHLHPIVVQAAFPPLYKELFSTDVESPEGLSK
UniProt Q00417: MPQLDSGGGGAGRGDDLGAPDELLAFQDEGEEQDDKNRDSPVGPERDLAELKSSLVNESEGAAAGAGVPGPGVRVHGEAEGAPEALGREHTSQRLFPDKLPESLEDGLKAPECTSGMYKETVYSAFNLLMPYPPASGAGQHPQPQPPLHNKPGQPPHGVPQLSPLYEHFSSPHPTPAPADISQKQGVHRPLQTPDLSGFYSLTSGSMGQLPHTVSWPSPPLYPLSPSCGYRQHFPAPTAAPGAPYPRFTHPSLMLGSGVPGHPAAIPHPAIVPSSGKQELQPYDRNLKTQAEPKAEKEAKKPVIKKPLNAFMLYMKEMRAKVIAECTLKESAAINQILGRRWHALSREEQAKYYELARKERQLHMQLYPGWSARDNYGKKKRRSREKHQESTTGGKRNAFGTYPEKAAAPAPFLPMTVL

T1: biotinylated IRF4 (IRF4-Avi-tag fusion protein, interferon regulatory factor 4) (mouse), Q64287
T1 chain: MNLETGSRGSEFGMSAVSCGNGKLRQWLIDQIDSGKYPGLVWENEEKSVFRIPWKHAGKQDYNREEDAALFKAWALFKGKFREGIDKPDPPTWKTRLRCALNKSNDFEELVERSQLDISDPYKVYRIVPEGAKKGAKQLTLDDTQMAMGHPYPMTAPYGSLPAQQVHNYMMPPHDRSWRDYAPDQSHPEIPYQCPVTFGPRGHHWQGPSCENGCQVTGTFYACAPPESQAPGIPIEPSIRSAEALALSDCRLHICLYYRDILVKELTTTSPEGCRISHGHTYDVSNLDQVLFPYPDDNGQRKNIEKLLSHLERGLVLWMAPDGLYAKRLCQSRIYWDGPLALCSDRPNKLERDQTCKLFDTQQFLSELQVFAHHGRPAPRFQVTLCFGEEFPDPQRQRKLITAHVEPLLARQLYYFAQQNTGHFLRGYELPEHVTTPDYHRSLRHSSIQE

T2: biotinylated IRF4 (IRF4-Avi-tag fusion protein, interferon regulatory factor 4) (mouse) (UniProt Q64287)
T2 sequence (chain, biotin on the Avi-tag (BirA-mediated in vivo biotinylation)): T1 chain

B1: FOXP3, Q99JB6 1-417 (protein)
chain: MPNPRPAKPMAPSLALGPSPGVLPSWKTAPKGSELLGTRGSGGPFQGRDLRSGAHTSSSLNPLPPSQLQLPTVPLVMVAPSGARLGPSPHLQALLQDRPHFMHQLSTVDAHAQTPVLQVRPLDNPAMISLPPPSAATGVFSLKARPGLPPGINVASLEWVSREPALLCTFPRSGTPRKDSNLLAAPQGSYPLLANGVCKWPGCEKVFEEPEEFLKHCQADHLLDEKGKAQCLLQREVVQSLEQQLELEKEKLGAMQAHLAGKMALAKAPSVASMDKSSCCIVATSTQGSVLPAWSAPREAPDGGLFAVRRHLWGSHGNSSFPEFFHNMDYFKYHNMRPPFTYATLIRWAILEAPERQRTLNEIYHWFTRMFAYFRNHPATWKNAIRHNLSLHKCFVRVESEKGAVWTVDEFEFRKKR
modifications: here or on the partner: biotin on the Avi-tag (BirA-mediated in vivo biotinylation)
B2: ZMYM2 (protein, UniProt Q9CU65 1-1376)
chain: MDTSSVGTLELTDQTPVLLGSTAMATSLTNVGNSFSGPPNPLVSRSSKFQNSSVEDDDDVVFIEPVQPPPSSAPLVADQRPITFTSSKNEELQGNDPKILPSSKELAPQKGSVSETIVIDDEEDMETNQGQEKSSSNFIERRPSETKNRTNDVDFSSSTFSRSKVNAGVSNSGITTEPDSEIQIANVTTLETGVSSVSDGQLESTDGRDMNLMITHVTSLHNTSLGDGSNGLQSSNFGVNIQTYTPSLTSQTKAGVGPFNPGRMNVAGDVFQNGESAPHHNPDSWISQSASFPRNQKQQGVDSLSPVASLPKQIFQPSNQQPTKPVKVTCANCKKPLQKGQTAYQRKGSAHLFCSTTCLSSFSHKPAPKKLCVMCKKDITTMKGTIVAQVDSSESFQEFCSTSCLSLYEDKQSPAKGALNKSRCTICGKLTEIRHEVSFKNMTHKLCSDHCFNRYRMANGLIMNCCEQCGEYLPSKGAGNNVLVVDGQQKRFCCQSCVTEYKQVGSHPSFLKEVRDHMQDSFLMQPEKYGKLTTCTGCRTQCRFFDMTQCIGPNGYMEPYCSTACMNSHKTKYAKSQSLGIICHFCKRNSLPQYQATMPDGKLYNFCNSSCVAKFQALSMQSSPNGQFVAPSDIQLKCNYCKNSFCSKPEILEWENKVHQFCSKTCSDDYKKLHCIVTYCEYCQEEKTLHETVNFSGVKRPFCSEGCKLLYKQDFARRLGLRCVTCNYCSQLCKKGATKELDGVVRDFCSEDCCKKFQEWYYKAARCDCCKSQGTLKERVQWRGEMKHFCDQHCLLRFYCQQNEPNMTTQKGPENLHYDQGCQTSRTKMTGSAPPPSPTPNKEMKNKAILCKPLTMTKATYCKPHMQTKSCQTDENWKTEYVPVPIPVPVYVPVPMHMYSQNIPVPTTVPVPVPVPVFLPAPLDSSEKIPATVEDLKSKVSSDPLDSELLTMTDMMTEEEGKAEASNINSVIIETDIIGSDLTKNSDPDIQSNMPDVPYEPDLDIEIDFPRAAEELDMENEFLLPPVFGEEYEEQPRPRSKKKGTKRKAVSGYQSHDDSSDNSECSFPFKYTYGVNAWKHWVKTRQLDEDLLVLDELKSSKSVKLKEDLLSHTTAELNYGLAHFVNEIRRPNGENYAPDSIYYLCLGIQEYLCGSNRKDNIFIDPGYQMFEQELNKILRSWQPSILPDGSIFSRVEEDYLWRIKQLGSHSPVALLNTLFYFNTKYFGLKTVEQHLRLSFGTVFRHWKKNPLTMENKACLRYQVSSLCGTDNEDKIATGKRKHEDDEPVFEQVENTANPSRCPVKMFECYLSKSPQNLNQRMDVFYLQPECSSSTDSPVWYTSTSLDRNTLENMLVRVLLVKDIYDKDNYELDEDTD
B3: SUFU (protein, UniProt Q9Z0P7 1-484)
chain: MAELRPSVAPGPAAPPASGPSAPPAFASLFPPGLHAIYGECRRLYPDQPNPLQVTAIVKYWLGGPDPLDYVSMYRNMGSPSANIPEHWHYISFGLSDLYGDNRVHEFTGTDGPSGFGFELTFRLKRETGESAPPTWPAELMQGLARYVFQSENTFCSGDHVSWHSPLDNSESRIQHMLLTEDPQMQPVRTPFGVVTFLQIVGVCTEELHSAQQWNGQGILELLRTVPIAGGPWLITDMRRGETIFEIDPHLQERVDKGIETDGSNLSGVSAKCAWDDLSRPPEDEEDSRSICLGTQPRRLSGKDTEQIRETLRRGLEINSKPVLPPINSQRQNGLTHDRAPSRKDSLGSDSSTAIIPHELIRTRQLESVHLKFNQESGALIPLCLRGRLLHGRHFTYKSITGDMAITFVSTGVEGAFATEEHPYAAHGPWLQILLTEEFVEKMLEDLEDLTSPEEFKLPKEYSWPEKKLKVSILPDVVFDSPLH
B4: JunB (protein, UniProt P09450 1-344)
chain: MCTKMEQPFYHDDSYAAAGYGRSPGSLSLHDYKLLKPTLALNLADPYRGLKGPGARGPGPEGSGAGSYFSGQGSDTGASLKLASTELERLIVPNSNGVITTTPTPPGQYFYPRGGGSGGGTGGGVTEEQEGFADGFVKALDDLHKMNHVTPPNVSLGASGGPQAGPGGVYAGPEPPPVYTNLSSYSPASAPSGGSGTAVGTGSSYPTATISYLPHAPPFAGGHPAQLGLSRGASAFKEEPQTVPEARSRDATPPVSPINMEDQERIKVERKRLRNRLAATKCRKRKLERIARLEDKVKTLKAENAGLSSAAGLLREQVAQLKQKVMTHVSNGCQLLLGVKGHAF

Biological target: T1, biotinylated IRF4 (IRF4-Avi-tag fusion …)
Experiment: affinity purification with mass spectrometry
Details: remark: other sources report otherwise

binding, binds:
B1

Biological target: T2, biotinylated IRF4 (IRF4-Avi-tag fusion protein, interferon regulatory factor 4) (mouse)
Experiment: affinity purification with mass spectrometry
Details: not given

binding, binds:
Aiolos (from UniProt O08900 1-507)
Ikaros (from UniProt Q03267 1-517)
B2
B3
B4

Biological target: T2, biotinylated IRF4 (IRF4-Avi-tag fusion protein, interferon regulatory factor 4) (mouse)
Experiment: affinity purification with mass spectrometry
Details: not given
Remark: another data set of the same source

binding, binds:
AHR (from UniProt P30561 10-848)
Aiolos (from UniProt O08900 1-507)
BACH2 (from UniProt P97303 1-839)
CBP (from UniProt P45481 1-2441)
CDK1 (from UniProt P11440 1-297) (enzyme)
CDK2 (from UniProt P97377 1-346) (enzyme)
CDK9 (from UniProt Q99J95 1-372) (enzyme)
HDAC1 (from UniProt O09106 1-482) (enzyme)
Ikaros (from UniProt Q03267 1-517)
LAT1 (Slc7a5) (from UniProt Q9Z127 1-512)
MALT1 (from UniProt Q2TBA3 1-832)
NFKB1 (from UniProt P25799 1-971)
RORγt (from UniProt P51450-2 1-495)
TCF7 (transcription factor 7 or T cell factor 1, TCF1) (from UniProt Q00417 1-419)

Results are given in words; binding and its absence hold for the method and conditions named. Binding seen in cells or lysates may run through a third protein. A yes stands for co-enrichment or nearness to the bait. Other partners may have been found. Sequences can lack the tags named with a protein.
